One experiment addresses APEX2-ATP7B-EGFP (human) (UniProt P35670). In words: proximity labelling.
Experiment [1] concerns the target APEX2-mKO2-HA-ATP7A (human) (UniProt Q04656). In words: proximity labelling.

Protein sequences, listed by entry. Tags and fused reporters are not part of them.
UniProt P35670: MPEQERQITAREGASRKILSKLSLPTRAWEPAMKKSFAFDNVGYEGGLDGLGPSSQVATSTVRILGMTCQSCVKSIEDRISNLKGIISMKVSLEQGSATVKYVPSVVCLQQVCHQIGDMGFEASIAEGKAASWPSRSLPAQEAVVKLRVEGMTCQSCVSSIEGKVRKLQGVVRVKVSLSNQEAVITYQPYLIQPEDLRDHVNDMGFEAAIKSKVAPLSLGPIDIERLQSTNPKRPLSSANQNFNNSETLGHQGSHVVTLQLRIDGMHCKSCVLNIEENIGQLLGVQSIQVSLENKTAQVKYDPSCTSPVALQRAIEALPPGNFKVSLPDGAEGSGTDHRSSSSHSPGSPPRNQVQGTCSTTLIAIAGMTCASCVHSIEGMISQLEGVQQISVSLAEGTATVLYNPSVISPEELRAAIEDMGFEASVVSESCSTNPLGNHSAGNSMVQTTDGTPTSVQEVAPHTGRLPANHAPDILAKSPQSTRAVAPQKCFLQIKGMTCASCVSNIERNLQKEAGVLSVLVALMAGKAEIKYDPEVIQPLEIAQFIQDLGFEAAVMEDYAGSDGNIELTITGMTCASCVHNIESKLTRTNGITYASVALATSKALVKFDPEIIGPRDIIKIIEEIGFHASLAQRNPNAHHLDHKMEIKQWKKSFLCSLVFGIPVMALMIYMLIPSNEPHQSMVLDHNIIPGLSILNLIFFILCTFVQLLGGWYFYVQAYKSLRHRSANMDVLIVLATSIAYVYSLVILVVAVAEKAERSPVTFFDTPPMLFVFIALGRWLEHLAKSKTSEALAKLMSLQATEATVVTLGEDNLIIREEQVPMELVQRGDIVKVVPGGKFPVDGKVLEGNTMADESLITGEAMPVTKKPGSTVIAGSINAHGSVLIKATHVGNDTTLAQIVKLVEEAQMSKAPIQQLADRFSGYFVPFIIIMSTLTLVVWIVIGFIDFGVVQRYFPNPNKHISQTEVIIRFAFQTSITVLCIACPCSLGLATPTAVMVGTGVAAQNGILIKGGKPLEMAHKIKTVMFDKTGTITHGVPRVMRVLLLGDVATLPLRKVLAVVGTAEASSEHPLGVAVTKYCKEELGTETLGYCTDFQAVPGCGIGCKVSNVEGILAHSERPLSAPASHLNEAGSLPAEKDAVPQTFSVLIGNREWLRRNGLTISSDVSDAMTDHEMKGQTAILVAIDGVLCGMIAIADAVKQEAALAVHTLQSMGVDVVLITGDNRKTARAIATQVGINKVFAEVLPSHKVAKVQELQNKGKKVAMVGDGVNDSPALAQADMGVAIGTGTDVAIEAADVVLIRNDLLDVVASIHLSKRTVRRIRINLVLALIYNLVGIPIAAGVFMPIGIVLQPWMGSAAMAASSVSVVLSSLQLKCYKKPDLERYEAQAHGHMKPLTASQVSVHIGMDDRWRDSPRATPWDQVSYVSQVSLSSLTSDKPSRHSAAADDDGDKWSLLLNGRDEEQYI
UniProt Q04656: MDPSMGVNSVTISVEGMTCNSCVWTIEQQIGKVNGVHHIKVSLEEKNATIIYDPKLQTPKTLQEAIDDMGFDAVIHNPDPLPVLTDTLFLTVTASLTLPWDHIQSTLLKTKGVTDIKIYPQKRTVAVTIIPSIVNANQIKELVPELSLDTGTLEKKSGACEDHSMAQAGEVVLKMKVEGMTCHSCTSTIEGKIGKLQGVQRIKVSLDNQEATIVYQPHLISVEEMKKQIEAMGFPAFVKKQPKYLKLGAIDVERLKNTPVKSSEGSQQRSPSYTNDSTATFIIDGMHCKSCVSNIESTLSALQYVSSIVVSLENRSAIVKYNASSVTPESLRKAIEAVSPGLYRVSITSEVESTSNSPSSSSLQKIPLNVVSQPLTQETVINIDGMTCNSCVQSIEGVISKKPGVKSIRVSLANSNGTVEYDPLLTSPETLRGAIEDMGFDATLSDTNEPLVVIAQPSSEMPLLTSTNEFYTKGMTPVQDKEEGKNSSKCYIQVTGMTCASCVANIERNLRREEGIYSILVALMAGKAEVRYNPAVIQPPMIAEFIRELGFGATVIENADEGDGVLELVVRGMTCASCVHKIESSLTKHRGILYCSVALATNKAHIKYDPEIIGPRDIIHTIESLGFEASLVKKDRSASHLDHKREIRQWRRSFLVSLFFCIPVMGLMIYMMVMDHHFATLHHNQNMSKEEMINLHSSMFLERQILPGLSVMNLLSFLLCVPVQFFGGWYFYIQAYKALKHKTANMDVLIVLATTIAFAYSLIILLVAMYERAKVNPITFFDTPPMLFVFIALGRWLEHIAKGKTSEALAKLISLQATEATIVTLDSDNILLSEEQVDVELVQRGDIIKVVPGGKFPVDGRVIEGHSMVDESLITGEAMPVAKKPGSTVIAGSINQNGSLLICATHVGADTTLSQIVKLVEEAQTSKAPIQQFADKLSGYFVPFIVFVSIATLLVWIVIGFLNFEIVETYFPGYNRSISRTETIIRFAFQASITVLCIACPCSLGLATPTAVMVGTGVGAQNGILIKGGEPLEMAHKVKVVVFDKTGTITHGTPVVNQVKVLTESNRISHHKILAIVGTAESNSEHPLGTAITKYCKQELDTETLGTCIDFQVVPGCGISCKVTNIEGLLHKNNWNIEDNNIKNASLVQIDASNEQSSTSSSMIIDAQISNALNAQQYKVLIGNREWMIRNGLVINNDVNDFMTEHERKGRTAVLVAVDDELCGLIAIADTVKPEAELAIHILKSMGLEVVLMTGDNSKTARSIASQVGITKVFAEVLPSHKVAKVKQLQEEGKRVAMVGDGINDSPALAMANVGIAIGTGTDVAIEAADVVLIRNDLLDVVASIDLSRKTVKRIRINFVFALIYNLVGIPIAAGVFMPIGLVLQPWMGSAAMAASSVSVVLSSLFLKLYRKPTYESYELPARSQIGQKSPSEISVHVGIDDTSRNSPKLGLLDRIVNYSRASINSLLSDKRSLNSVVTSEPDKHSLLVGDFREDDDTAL
UniProt A0A8I3PSI8: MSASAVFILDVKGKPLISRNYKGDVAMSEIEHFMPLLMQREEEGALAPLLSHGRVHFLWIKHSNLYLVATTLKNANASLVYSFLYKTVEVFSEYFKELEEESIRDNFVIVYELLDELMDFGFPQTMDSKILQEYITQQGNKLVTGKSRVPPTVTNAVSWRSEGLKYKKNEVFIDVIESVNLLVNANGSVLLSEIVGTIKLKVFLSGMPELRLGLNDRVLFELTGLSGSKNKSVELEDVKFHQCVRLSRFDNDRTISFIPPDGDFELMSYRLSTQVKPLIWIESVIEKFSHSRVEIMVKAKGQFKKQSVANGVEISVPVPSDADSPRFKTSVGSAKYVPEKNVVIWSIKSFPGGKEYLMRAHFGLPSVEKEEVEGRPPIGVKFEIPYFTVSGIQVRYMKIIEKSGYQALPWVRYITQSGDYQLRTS
UniProt A0A8I3MGM6: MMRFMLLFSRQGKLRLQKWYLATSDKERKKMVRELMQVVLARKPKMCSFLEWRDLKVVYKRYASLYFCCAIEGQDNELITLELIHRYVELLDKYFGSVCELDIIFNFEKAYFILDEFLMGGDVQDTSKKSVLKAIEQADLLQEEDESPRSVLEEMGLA

This note sets out measurements from doi:10.1101/2023.04.19.537613.

No constants are given. Whether binding was seen depends on the method and setting. In cells and extracts the contact can be indirect. These calls come from enrichment with a bait or labelling near it, and not all partners need be listed.

On to “AP-1 complex µ subunit AP1M2 (from UniProt A0A8I3PSI8 1-425)”, for which the binding result (in the experiment with APEX2-ATP7B-EGFP (human); in experiment [1]) was “binds” in each case.

With “AP-1 complex σ subunit AP1S1 (from UniProt A0A8I3MGM6 1-158)”, the binding result (with APEX2-ATP7B-EGFP (human); in experiment [1]) was “binds” throughout.
